From the supplement of paper PMC4604168 (melanoma cell lines)
The list shows a part of the results. Repeats are few or missing, and single values can be far off.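 Cells were imaged in 1,536-well plates, and nuclei stained with an antibody against cleaved PARP were counted against all DNA-stained nuclei to give the apoptosis fraction. Screening doses were chosen to leave most cells alive, and resting and induced cleaved-PARP levels differ strongly between cell lines.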

tested on: WM1716; assay: cleaved PARP positive nuclei fraction relative to DMSO control; melanoma cells; higher = more apoptosis; conditions: library dose: low library concentration; 72 h

SMILES	cleaved PARP positive nuclei fraction
COc1cc2ncnc(Nc3ccc(Oc4ccccc4)cc3)c2cc1OC + C/C(O)=C(\C#N)C(=O)Nc1cc(Br)ccc1Br [LFM-A13] (first compound 2 µM, partner dose 2 µM)	114%
C[C@]12O[C@H](C[C@]1(O)CO)n1c3ccccc3c3c4c(c5c6ccccc6n2c5c31)CNC4=O [Lestaurtinib] + CCN(CC)CCCCNc1ncc2cc(-c3cc(OC)cc(OC)c3)c(NC(=O)NC(C)(C)C)nc2n1 [PD173074] (first compound 0.004 µM, partner dose 0.1 µM)	102%
NC(=O)Nc1cc(-c2cccc(F)c2)sc1C(=O)N[C@H]1CCCNC1 + C/C(O)=C(\C#N)C(=O)Nc1cc(Br)ccc1Br [LFM-A13] (first compound 0.02 µM, partner dose 2 µM)	120%
Cc1ccc(Nc2nccc(N(C)c3ccc4c(C)n(C)nc4c3)n2)cc1S(N)(=O)=O [Pazopanib] + Cn1cc(C2=C(c3cn(C4CCN(Cc5ccccn5)CC4)c4ccccc34)C(=O)NC2=O)c2ccccc21 [Enzastaurin] (first compound 0.4 µM, partner dose 0.8 µM)	77.2%
Cc1cc(Nc2cc(N3CCN(C)CC3)nc(Sc3ccc(NC(=O)C4CC4)cc3)n2)n[nH]1 [Tozasertib] + C/C(O)=C(\C#N)C(=O)Nc1cc(Br)ccc1Br [LFM-A13] (first compound 0.006 µM, partner dose 2 µM)	111%
N.N.[Cl][Pt][Cl] [cisplatin] + O=c1cc(-c2cccc3c2Sc2ccccc2S3)oc(N2CCOCC2)c1 [KU55933] (first compound 1.6 µM, partner dose 1 µM)	45.2%
Cc1cc(SCc2sc(-c3ccc(C(F)(F)F)c(F)c3)nc2C)ccc1OCC(=O)O + O=c1cc(-c2cccc3c2Sc2ccccc2S3)oc(N2CCOCC2)c1 [KU55933] (first compound 2 µM, partner dose 1 µM)	61.5%
Cn1cc(C2=C(c3cn(C4CCN(Cc5ccccn5)CC4)c4ccccc34)C(=O)NC2=O)c2ccccc21 [Enzastaurin] + CN(c1ncccc1CNc1nc(Nc2ccc3c(c2)CC(=O)N3)ncc1C(F)(F)F)S(C)(=O)=O [PF562271] (first compound 0.8 µM, partner dose 0.08 µM)	77.2%
CN(NC(=O)CC(=O)NN(C)C(=S)c1ccccc1)C(=S)c1ccccc1 + Cc1cc(SCc2sc(-c3ccc(C(F)(F)F)c(F)c3)nc2C)ccc1OCC(=O)O [GW0742] (first compound 0.006 µM, partner dose 2 µM)	4.84%
C[C@]12O[C@H](C[C@]1(O)CO)n1c3ccccc3c3c4c(c5c6ccccc6n2c5c31)CNC4=O [Lestaurtinib] + COc1ccc(COc2ccc(Cc3cnc(N)nc3N)cc2OC)cc1 [GW2580] (first compound 0.004 µM, partner dose 1 µM)	52.7%
C[C@]12O[C@H](C[C@]1(O)CO)n1c3ccccc3c3c4c(c5c6ccccc6n2c5c31)CNC4=O [Lestaurtinib] + C[C@@H]1CCN(C(=O)CC#N)C[C@@H]1N(C)c1ncnc2[nH]ccc12 [CP690550] (first compound 0.004 µM, partner dose 1 µM)	99.1%
COCC[n+]1c2c(n(Cc3cnccn3)c1C)C(=O)c1ccccc1C2=O + C/C(O)=C(\C#N)C(=O)Nc1cc(Br)ccc1Br [LFM-A13] (first compound 0.0004 µM, partner dose 2 µM)	148%
C[C@]12O[C@H](C[C@]1(O)CO)n1c3ccccc3c3c4c(c5c6ccccc6n2c5c31)CNC4=O [Lestaurtinib] + OCCn1cc(-c2cnc3nnn(Cc4ccc5ncccc5c4)c3n2)cn1 [PF04217903] (first compound 0.004 µM, partner dose 1 µM)	68%
COc1cc([C@@H]2c3cc4c(cc3[C@@H](O[C@@H]3O[C@@H]5CO[C@@H](C)O[C@H]5[C@H](O)[C@H]3O)[C@H]3COC(=O)[C@H]23)OCO4)cc(OC)c1O [etoposide] + Cn1cc(C2=C(c3cn(C4CCN(Cc5ccccn5)CC4)c4ccccc34)C(=O)NC2=O)c2ccccc21 [Enzastaurin] (first compound 0.02 µM, partner dose 0.8 µM)	78.9%
C[As](C)SC[C@H](NC(=O)CC[C@H](N)C(=O)O)C(=O)NCC(=O)O [Darinaparsin] + CN(NC(=O)CC(=O)NN(C)C(=S)c1ccccc1)C(=S)c1ccccc1 [STA4783] (first compound 0.4 µM, partner dose 0.006 µM)	98.4%

tested on: WM1745; assay: as above; conditions: library dose: low library concentration; 72 h

SMILES	cleaved PARP positive nuclei fraction
N.N.[Cl][Pt][Cl] [cisplatin] + OCc1c[nH]c2ccccc12 [Indole-3-carbinol] (first compound 1.6 µM, partner dose 0.8 µM)	89.1%
NC1(c2ccc(-c3nc4ccn5c(=O)[nH]nc5c4cc3-c3ccccc3)cc2)CCC1 + N.N.[Cl][Pt][Cl] [cisplatin] (first compound 0.4 µM, partner dose 1.6 µM)	105%
Cc1cc(SCc2sc(-c3ccc(C(F)(F)F)c(F)c3)nc2C)ccc1OCC(=O)O + C/C(O)=C(\C#N)C(=O)Nc1cc(Br)ccc1Br [LFM-A13] (first compound 2 µM, partner dose 2 µM)	103%
N.N.[Cl][Pt][Cl] [cisplatin] + CN1CCN(c2ccc3nc(-c4c(N)c5c(F)cccc5[nH]c4=O)[nH]c3c2)CC1 [Dovitinib] (first compound 1.6 µM, partner dose 0.1 µM)	101%
CC1(C)NC(=O)N(c2ccc([N+](=O)[O-])c(C(F)(F)F)c2)C1=O [nilutamide] + O=C(Oc1ccc([N+](=O)[O-])cc1)N1CCC(C(O)(c2ccc3c(c2)OCO3)c2ccc3c(c2)OCO3)CC1 [JZL184] (first compound 1 µM, partner dose 1 µM)	101%
O=C(/C=C/c1cccnc1)NCCCCC1CCN(C(=O)c2ccccc2)CC1 + N.N.[Cl][Pt][Cl] [cisplatin] (first compound 0.01 µM, partner dose 1.6 µM)	94.6%
Cn1cc(C2=C(c3cn(C4CCN(Cc5ccccn5)CC4)c4ccccc34)C(=O)NC2=O)c2ccccc21 [Enzastaurin] + CC(C)CCN1c2nc(Nc3cc(F)c(O)c(F)c3)ncc2N(C)C(=O)C1C [BID1870] (first compound 0.8 µM, partner dose 0.2 µM)	96.7%
Cn1cc(C2=C(c3cn(C4CCN(Cc5ccccn5)CC4)c4ccccc34)C(=O)NC2=O)c2ccccc21 [Enzastaurin] + O=C(Nc1cccc(Cl)c1)Nc1ncc(CCNc2ncnc3ccsc23)s1 [SNS314] (first compound 0.8 µM, partner dose 0.0008 µM)	100%
Cc1cc(Nc2cc(N3CCN(C)CC3)nc(Sc3ccc(NC(=O)C4CC4)cc3)n2)n[nH]1 [Tozasertib] + C[As](C)SC[C@H](NC(=O)CC[C@H](N)C(=O)O)C(=O)NCC(=O)O [Darinaparsin] (first compound 0.006 µM, partner dose 0.4 µM)	112%
C[C@]1(O)C[C@@H](c2nc(-c3ccc4ccc(-c5ccccc5)nc4c3)c3c(N)nccn32)C1 + Cc1cc(SCc2sc(-c3ccc(C(F)(F)F)c(F)c3)nc2C)ccc1OCC(=O)O [GW0742] (first compound 0.4 µM, partner dose 2 µM)	102%
C[As](C)SC[C@H](NC(=O)CC[C@H](N)C(=O)O)C(=O)NCC(=O)O [Darinaparsin] + Oc1cc(-c2nc(-c3ccccc3)[nH]c2-c2ccncc2)ccc1Cl [L779450] (first compound 0.4 µM, partner dose 0.2 µM)	124%
CC(=O)O[C@@]12CO[C@@H]1C[C@H](O)[C@@]1(C)C(=O)[C@H](O)C3=C(C)[C@@H](OC(=O)[C@H](O)[C@@H](NC(=O)OC(C)(C)C)c4ccccc4)C[C@@](O)([C@@H](OC(=O)c4ccccc4)[C@H]21)C3(C)C [Docetaxel] + O=C(Oc1ccc([N+](=O)[O-])cc1)N1CCC(C(O)(c2ccc3c(c2)OCO3)c2ccc3c(c2)OCO3)CC1 [JZL184] (first compound 0.0001 µM, partner dose 1 µM)	188%
C[C@]12O[C@H](C[C@]1(O)CO)n1c3ccccc3c3c4c(c5c6ccccc6n2c5c31)CNC4=O [Lestaurtinib] + CS(=O)(=O)c1ccc(C(=O)Nc2ccc(Cl)c(-c3ccccn3)c2)c(Cl)c1 [vismodegib] (first compound 0.004 µM, partner dose 1 µM)	102%
C[As](C)SC[C@H](NC(=O)CC[C@H](N)C(=O)O)C(=O)NCC(=O)O [Darinaparsin] + COc1ccc2c(c1)CCC1C2CCC2(C)C(NCCCCCCN3C(=O)C=CC3=O)CCC12 [U73122] (first compound 0.4 µM, partner dose 0.4 µM)	112%
C=C(c1ccc(C(=O)O)cc1)c1cc2c(cc1C)C(C)(C)CCC2(C)C [Bexarotene] + C[As](C)SC[C@H](NC(=O)CC[C@H](N)C(=O)O)C(=O)NCC(=O)O [Darinaparsin] (first compound 2 µM, partner dose 0.4 µM)	106%
CC(=O)O[C@@]12CO[C@@H]1C[C@H](O)[C@@]1(C)C(=O)[C@H](O)C3=C(C)[C@@H](OC(=O)[C@H](O)[C@@H](NC(=O)OC(C)(C)C)c4ccccc4)C[C@@](O)([C@@H](OC(=O)c4ccccc4)[C@H]21)C3(C)C [Docetaxel] + N.N.[Cl][Pt][Cl] [cisplatin] (first compound 0.0001 µM, partner dose 1.6 µM)	151%

Another view of part of the listing above:
SMILES | cleaved PARP positive nuclei fraction
Cn1cc(C2=C(c3cn(C4CCN(Cc5ccccn5)CC4)c4ccccc34)C(=O)NC2=O)c2ccccc21 [Enzastaurin] + O=C(Nc1cccc(Cl)c1)Nc1ncc(CCNc2ncnc3ccsc23)s1 [SNS314] (first compound 0.8 µM, partner dose 0.0008 µM) | 100%
Cc1cc(Nc2cc(N3CCN(C)CC3)nc(Sc3ccc(NC(=O)C4CC4)cc3)n2)n[nH]1 [Tozasertib] + C[As](C)SC[C@H](NC(=O)CC[C@H](N)C(=O)O)C(=O)NCC(=O)O [Darinaparsin] (first compound 0.006 µM, partner dose 0.4 µM) | 112%
C[C@]1(O)C[C@@H](c2nc(-c3ccc4ccc(-c5ccccc5)nc4c3)c3c(N)nccn32)C1 + Cc1cc(SCc2sc(-c3ccc(C(F)(F)F)c(F)c3)nc2C)ccc1OCC(=O)O [GW0742] (first compound 0.4 µM, partner dose 2 µM) | 102%
